Measurements: patent US20250043285A1, “Mammalian ATG8 Proteins and ATG9A Direct Sealing of Autophagosomal Membranes” (UNM Rainforest Innovations, priority 2023, published 2025)
No constants are given. Whether binding was seen depends on the method and setting. In cells and extracts the contact can be indirect. Some entries that bind do so weakly or less than the wild type.

Chains of the proteins cited; added tags and fusions are not shown. Lines headed by an entry give the natural chain unless they say otherwise; changes in a name come on top. Residues count along the entry.
UniProt O95166: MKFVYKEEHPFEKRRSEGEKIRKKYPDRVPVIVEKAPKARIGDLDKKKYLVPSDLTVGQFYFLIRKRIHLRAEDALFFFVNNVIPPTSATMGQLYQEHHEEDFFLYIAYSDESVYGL
GFP-GABARAP: residues 1-116 of O95166
UniProt Q8NEZ2: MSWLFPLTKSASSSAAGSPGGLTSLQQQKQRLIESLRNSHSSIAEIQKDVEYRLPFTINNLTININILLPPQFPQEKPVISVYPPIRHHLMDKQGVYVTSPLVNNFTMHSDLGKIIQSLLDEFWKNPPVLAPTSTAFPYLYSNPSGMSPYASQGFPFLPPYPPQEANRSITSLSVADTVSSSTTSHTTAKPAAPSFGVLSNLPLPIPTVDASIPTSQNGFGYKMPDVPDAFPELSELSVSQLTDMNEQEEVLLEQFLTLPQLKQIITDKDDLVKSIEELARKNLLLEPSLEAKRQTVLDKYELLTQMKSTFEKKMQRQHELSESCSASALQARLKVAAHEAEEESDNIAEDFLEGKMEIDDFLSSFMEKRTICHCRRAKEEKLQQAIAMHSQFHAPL
UniProt P60520: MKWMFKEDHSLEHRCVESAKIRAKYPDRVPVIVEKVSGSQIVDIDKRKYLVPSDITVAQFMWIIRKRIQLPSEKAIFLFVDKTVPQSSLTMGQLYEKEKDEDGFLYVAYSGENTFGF
UniProt Q9BXW4: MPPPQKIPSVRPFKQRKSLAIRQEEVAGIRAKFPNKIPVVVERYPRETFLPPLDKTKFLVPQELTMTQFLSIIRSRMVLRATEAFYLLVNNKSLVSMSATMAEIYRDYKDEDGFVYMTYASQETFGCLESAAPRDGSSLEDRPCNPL

Legend:
GFP-GABARAP = GFP-GABARAP (UniProt O95166); assay: Co-IP
[1] = molecular target: Myc-VPS37A (in vitro translated, [35S]-radiolabeled, full length) (UniProt Q8NEZ2); assay: GST pulldown of in vitro translated [35S] Myc-VPS37A (FIG. 1A)
[2] = molecular target: Myc-VPS37A (in vitro translated, [35S]-radiolabeled, full length) (UniProt Q8NEZ2); assay: discussion of the pulldown and Co-IP results; assay not given

## FLAG-VPS37A^Nter-EGFP (VPS37A residues 1-22 fused to the N-terminus of GFP) (from UniProt Q8NEZ2 1-22)
GFP-GABARAP
  binding: binds

## GST-GABARAP (from UniProt O95166 1-117)
[1]
  binding: binds
[2]
  binding: binds

## GST-GABARAP-L2 (from UniProt P60520 1-117)
[1]
  binding: binds

## GST-LC3C (from UniProt Q9BXW4 1-147)
[1]
  binding: binds
